Data on six sequences can be found in PMC9875507.

Chains of the proteins cited; added tags and fusions are not shown. Residues count along the entry.
UniProt P26367, 1-269: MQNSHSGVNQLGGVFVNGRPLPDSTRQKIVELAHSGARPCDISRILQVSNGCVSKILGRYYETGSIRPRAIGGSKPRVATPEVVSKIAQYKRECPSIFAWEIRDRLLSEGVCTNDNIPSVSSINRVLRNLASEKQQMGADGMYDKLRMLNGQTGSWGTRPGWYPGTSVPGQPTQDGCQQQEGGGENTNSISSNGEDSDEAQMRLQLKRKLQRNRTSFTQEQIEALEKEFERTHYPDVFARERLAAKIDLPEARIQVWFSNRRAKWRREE

For at least one entry, the source does not settle the construct or the ends of the probe. For part of these data: A negative result means that nothing was seen under these conditions. The comparison behind a weaker result is the experiment's own reference, which may not be listed here. For part of these data: At least one verdict rests on a figure or table, not on a statement of the authors.

One data set has as its target Pax6 PD/HD (UniProt P26367). Put plainly: EMSA. The following applies: not stated, autoradiography 6 h (PD/HD) and 16 h (PD(5a)/HD), recombinant protein, protein details: GST, label: radiolabel (autoradiography).
In a further data set the test system is Pax6 PD(5a)/HD. The data set can be described thus: EMSA. Particulars: not stated, autoradiography 6 h (PD/HD) and 16 h (PD(5a)/HD), protein details: GST, label: radiolabel (autoradiography).

Regarding “GAAAACGAGTATTCACGCATCACAAAACAAAGAGCT (double strand) [motif 1-1 methylated CpG]”, the binding result in the data set with Pax6 PD/HD (symmetric 5mC at the single CpG of the site (probably C16 of top strand; exact position only in Fig 13A)) is “binds”; in the data set with Pax6 PD(5a)/HD (symmetric 5mC at the single CpG of the site (probably C16 of top strand; exact position only in Fig 13A), recombinant protein), “binds”.
As for “GAAAACGAGTATTCACGCATCACAAAACAAAGAGCT (double strand) [motif 1-1 unmethylated]”, the binding result with Pax6 PD/HD and in the data set with Pax6 PD(5a)/HD (recombinant protein) was “binds” throughout.
Consider “TTCAGGAAAATTTCCGCATGAATGGCGCAGCTCGAGT (double strand) [motif 3-3 both CpGs methylated]”, for which the binding result is given as “binds more weakly” with Pax6 PD/HD (reduced vs downstream mono-methylated, symmetric 5mC at both CpGs (probably C15 and C26 of top strand; marked in Fig 14A)); “binds more weakly” in the data set on Pax6 PD(5a)/HD (reduced vs downstream mono-methylated, symmetric 5mC at both CpGs (probably C15 and C26 of top strand; marked in Fig 14A), recombinant protein).
For the sequence “TTCAGGAAAATTTCCGCATGAATGGCGCAGCTCGAGT (double strand) [motif 3-3 downstream CpG methylated]”, the binding result in the data set with Pax6 PD/HD (very modest positive effect vs unmethylated, symmetric 5mC at downstream CpG (probably C26 of top strand; marked in Fig 14A)) is reported as “binds”; in the data set on Pax6 PD(5a)/HD (symmetric 5mC at downstream CpG (probably C26 of top strand; marked in Fig 14A), recombinant protein) it was “binds”.
As to “TTCAGGAAAATTTCCGCATGAATGGCGCAGCTCGAGT (double strand) [motif 3-3 unmethylated]”, the figures for the binding result in the data set with Pax6 PD/HD and in the data set with Pax6 PD(5a)/HD (recombinant protein) were “binds” and “no binding”, respectively.
For “TTCAGGAAAATTTCCGCATGAATGGCGCAGCTCGAGT (double strand) [motif 3-3 upstream CpG methylated]”, the binding result is “binds” in the data set with Pax6 PD/HD (slightly increased vs unmethylated, symmetric 5mC at upstream CpG (probably C15 of top strand; marked in Fig 14A)) and “no binding” in the data set with Pax6 PD(5a)/HD (symmetric 5mC at upstream CpG (probably C15 of top strand; marked in Fig 14A), recombinant …).
